Experimental data as given in publication PMC8038998.

Target: T1, Metastasis Associated in Colon Cancer 1 (MACC1), endogenous in SW620 cells (human (endogenous in SW620)) (UniProt Q6ZN28)
T1 sequence: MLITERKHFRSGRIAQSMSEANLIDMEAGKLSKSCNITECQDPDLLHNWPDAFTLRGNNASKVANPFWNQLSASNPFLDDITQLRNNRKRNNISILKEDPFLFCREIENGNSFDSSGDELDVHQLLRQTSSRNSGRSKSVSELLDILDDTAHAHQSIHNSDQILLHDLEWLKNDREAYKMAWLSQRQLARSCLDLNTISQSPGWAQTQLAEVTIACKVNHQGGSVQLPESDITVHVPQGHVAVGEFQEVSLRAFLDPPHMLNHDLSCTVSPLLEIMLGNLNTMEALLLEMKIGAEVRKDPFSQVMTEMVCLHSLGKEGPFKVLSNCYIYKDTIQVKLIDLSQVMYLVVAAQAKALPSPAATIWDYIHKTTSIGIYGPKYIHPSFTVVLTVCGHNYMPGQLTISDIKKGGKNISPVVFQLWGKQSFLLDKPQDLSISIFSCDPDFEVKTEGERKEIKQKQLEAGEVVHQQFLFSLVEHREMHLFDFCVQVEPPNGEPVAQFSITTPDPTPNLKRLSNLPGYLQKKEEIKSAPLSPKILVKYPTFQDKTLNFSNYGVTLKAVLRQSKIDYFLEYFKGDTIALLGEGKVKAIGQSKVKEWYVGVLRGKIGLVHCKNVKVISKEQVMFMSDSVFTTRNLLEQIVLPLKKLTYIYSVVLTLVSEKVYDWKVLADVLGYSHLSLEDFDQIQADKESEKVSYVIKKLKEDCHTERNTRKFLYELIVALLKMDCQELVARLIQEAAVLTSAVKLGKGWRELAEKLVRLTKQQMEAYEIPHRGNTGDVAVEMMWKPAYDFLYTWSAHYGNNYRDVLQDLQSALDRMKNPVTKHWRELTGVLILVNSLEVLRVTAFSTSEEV
Assay: affinity purification with mass spectrometry; immunoprecipitation of SW620 cells with two polyclonal rabbit anti-human MACC1 antibodies (HPA020103, HPA020081), 4 times independently; shot-gun proteomics (Q-Exactive, MaxQuant)

B1: dynamin 1 (DNM1) (protein, UniProt Q05193 1-864)
chain: MGNRGMEDLIPLVNRLQDAFSAIGQNADLDLPQIAVVGGQSAGKSSVLENFVGRDFLPRGSGIVTRRPLVLQLVNATTEYAEFLHCKGKKFTDFEEVRLEIEAETDRVTGTNKGISPVPINLRVYSPHVLNLTLVDLPGMTKVPVGDQPPDIEFQIRDMLMQFVTKENCLILAVSPANSDLANSDALKVAKEVDPQGQRTIGVITKLDLMDEGTDARDVLENKLLPLRRGYIGVVNRSQKDIDGKKDITAALAAERKFFLSHPSYRHLADRMGTPYLQKVLNQQLTNHIRDTLPGLRNKLQSQLLSIEKEVEEYKNFRPDDPARKTKALLQMVQQFAVDFEKRIEGSGDQIDTYELSGGARINRIFHERFPFELVKMEFDEKELRREISYAIKNIHGIRTGLFTPDMAFETIVKKQVKKIREPCLKCVDMVISELISTVRQCTKKLQQYPRLREEMERIVTTHIREREGRTKEQVMLLIDIELAYMNTNHEDFIGFANAQQRSNQMNKKKTSGNQDEILVIRKGWLTINNIGIMKGGSKEYWFVLTAENLSWYKDDEEKEKKYMLSVDNLKLRDVEKGFMSSKHIFALFNTEQRNVYKDYRQLELACETQEEVDSWKASFLRAGVYPERVGDKEKASETEENGSDSFMHSMDPQLERQVETIRNLVDSYMAIVNKTVRDLMPKTIMHLMINNTKEFIFSELLANLYSCGDQNTLMEESAEQAQRRDEMLRMYHALKEALSIIGDINTTTVSTPMPPPVDDSWLQVQSVPAGRRSPTSSPTPQRRAPAVPPARPGSRGPAPGPPPAGSALGGAPPVPSRPGASPDPFGPPPQVPSRPNRAPPGVPSRSGQASPSRPESPRPPFDL
For B1, the binding was “binds”.

Results are given in words; binding and its absence hold for the method and conditions named. In cells and extracts the contact can be indirect. Here binding means that the protein was enriched with, or labelled near, the bait; the list need not be complete.
